According to PubChem BioAssay AID256 (DTP/NCI, 2004):
The list shows only some results of the screen, not a fair sample: it is rich in T/C values a quarter to a half above the control, in often repeated tests (any T/C) and in doses without a T/C. Further doses and runs are listed elsewhere. T/C gives the treated animals as a percentage of the vehicle group. Some doses have a count of surviving animals in place of a T/C: the source files T/C as zero there, which appears to mark a toxic dose or a test without result, not a measured value. Some survivor counts are full or nearly so, which does not show that the dose was tolerated: the source hardly ever lists a survival T/C far under the control, and the zero likely stands for such cases as well. Survivors were counted at the toxicity check, usually on the fifth day, unless a day is given; later deaths do not show. Schedule codes are those of the source, taken here to give the interval after Q, in days (D) or hours (H), and the number of doses after X. Some doses were run more than once; the results are listed from low to high. For survival time, the PubChem record calls one and a half times the control and up active, and a quarter to a half above the control has no call in these data; cut-offs in other NCI protocols can differ. Some T/C values carry the count of animals alive at the toxicity check (mostly the fifth day); without a count, all were alive then. Counts like (3×) count equal records among those shown.

Test system: CD2F1 mice, L1210 leukemia ip, survival T/C
Assay: NCI In Vivo Anticancer Drug Screen. Data for tumor model L1210 Leukemia (intraperitoneal) in CD2F1 (CDF1) mice
Conditions: higher T/C = longer survival
Outline: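 Implant tumor; dose compound or vehicle; measure endpoint in both groups; report treated divided by control.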

[1] = T/C endpoint: mean survival time, dose: 100.0 mg/kg/injection, schedule: Q01DX001 (ip), vehicle: Klucel (hydroxypropylcellulose) (HPC)
[2] = T/C endpoint: mean survival time, dose: 100.0 mg/kg/injection, schedule: Q01DX009 (ip), vehicle: saline with Tween-80
[3] = T/C endpoint: mean survival time, dose: 400.0 mg/kg/injection, schedule: Q01DX001 (ip), vehicle: saline with Tween-80
[4] = T/C endpoint: mean survival time, dose: 400.0 mg/kg/injection, schedule: Q01DX009 (ip), vehicle: saline with Tween-80
[5] = T/C endpoint: mean survival time, dose: 400.0 mg/kg/injection, schedule: Q04DX002 (ip), vehicle: saline with Tween-80

## CCOC(=O)Nc1cc2c(c(N)n1)N=C(CN(C)c1ccc(OC)cc1)CN2
T/C endpoint: mean survival time, dose: 1.56 mg/kg/injection, schedule: Q01DX009 (ip), vehicle: Klucel (hydroxypropylcellulose) (HPC)
  T/C: 127 % of control
T/C endpoint: mean survival time, dose: 3.13 mg/kg/injection, schedule: Q01DX009 (ip), vehicle: Klucel (hydroxypropylcellulose) (HPC)
  T/C: 136 and 137 % of control
T/C endpoint: mean survival time, dose: 6.25 mg/kg/injection, schedule: Q01DX009 (ip), vehicle: Klucel (hydroxypropylcellulose) (HPC)
  T/C: 130 % of control
T/C endpoint: mean survival time, dose: 12.5 mg/kg/injection, schedule: Q01DX009 (ip), vehicle: Klucel (hydroxypropylcellulose) (HPC)
  survivor count: 4 of 4
T/C endpoint: mean survival time, dose: 25.0 mg/kg/injection, schedule: Q01DX001 (ip), vehicle: Klucel (hydroxypropylcellulose) (HPC)
  T/C: 129 % of control
T/C endpoint: mean survival time, dose: 25.0 mg/kg/injection, schedule: Q01DX009 (ip), vehicle: Klucel (hydroxypropylcellulose) (HPC)
  survivor count: 3 of 4
T/C endpoint: mean survival time, dose: 50.0 mg/kg/injection, schedule: Q01DX001 (ip), vehicle: Klucel (hydroxypropylcellulose) (HPC)
  T/C: 135 % of control [5 of 6 alive]
[1]
  T/C: 146 % of control
  survivor count: 3 of 6
T/C endpoint: mean survival time, dose: 200.0 mg/kg/injection, schedule: Q01DX001 (ip), vehicle: Klucel (hydroxypropylcellulose) (HPC)
  survivor count: 3 of 6
T/C endpoint: mean survival time, dose: 400.0 mg/kg/injection, schedule: Q01DX001 (ip), vehicle: Klucel (hydroxypropylcellulose) (HPC)
  survivor count: 1 of 6

## NC(=S)N/N=C/c1ccc(OC(=O)COc2ccccc2Cl)cn1
T/C endpoint: mean survival time, dose: 50.0 mg/kg/injection, schedule: Q01DX009 (ip), vehicle: saline with Tween-80
  T/C: 132 and 135 % of control
[2]
  T/C: 144 % of control
T/C endpoint: mean survival time, dose: 100.0 mg/kg/injection, schedule: Q04DX003 (ip), vehicle: saline with Tween-80
  T/C: 125 % of control
T/C endpoint: mean survival time, dose: 200.0 mg/kg/injection, schedule: Q04DX003 (ip), vehicle: saline with Tween-80
  T/C: 136 and 145 % of control
[3]
  T/C: 129 % of control [9 of 10 alive]
[4]
  survivor count: 10 of 10
[5]
  T/C: 130 and 137 % of control
T/C endpoint: mean survival time, dose: 800.0 mg/kg/injection, schedule: Q04DX002 (ip), vehicle: saline with Tween-80
  T/C: 141 % of control

## CC(C)(C)[Si](C)(C)Oc1ncc(F)c(O[Si](C)(C)C(C)(C)C)n1
T/C endpoint: mean survival time, dose: 40.0 mg/kg/injection, schedule: Q01DX009 (ip), vehicle: distilled water + Tween-80
  survivor count: 3 of 6
T/C endpoint: mean survival time, dose: 80.0 mg/kg/injection, schedule: Q01DX009 (ip), vehicle: distilled water + Tween-80
  survivor count: 4 of 6

## CO[C@@]12[C@@H]3N[C@@H]3CN1C1=C(C(=O)C(Nc3nc(C)c(C)s3)=C(C)C1=O)[C@@H]2COC(N)=O
T/C endpoint: median survival time, dose: 1.5 mg/kg/injection, schedule: Q01DX001 (ip), vehicle: distilled water + Tween-80
  T/C: 126 % of control
T/C endpoint: median survival time, dose: 12.0 mg/kg/injection, schedule: Q01DX001 (ip), vehicle: distilled water + Tween-80
  T/C: 133 % of control
T/C endpoint: median survival time, dose: 48.0 mg/kg/injection, schedule: Q01DX001 (ip), vehicle: distilled water + Tween-80
  survivor count: 3 of 6

## O=C(CSC1=NCCN1)c1ccccc1
[2]
  survivor count: 0 of 6
T/C endpoint: mean survival time, dose: 200.0 mg/kg/injection, schedule: Q01DX009 (ip), vehicle: saline with Tween-80
  survivor count: 0 of 6
[4]
  survivor count: 0 of 6

## CCSCCN1C(=O)C2C3CCC(O3)C2C1=O (stereo not given)
[5]
  survivor count: 2 of 3

## COc1ccc(CCl)cc1CCl
T/C endpoint: mean survival time, dose: 400.0 mg/kg/injection, schedule: Q04DX003 (ip), vehicle: saline with Tween-80
  survivor count: 0 of 3

## C[n+]1ccc2ccccc2c1CCCc1nccc2ccccc12
T/C endpoint: mean survival time, dose: 100.0 mg/kg/injection, schedule: Q04DX003 (ip), vehicle: saline sonified
  survivor count: 1 of 6
T/C endpoint: mean survival time, dose: 200.0 mg/kg/injection, schedule: Q04DX003 (ip), vehicle: saline sonified
  survivor count: 0 of 6
T/C endpoint: mean survival time, dose: 400.0 mg/kg/injection, schedule: Q04DX003 (ip), vehicle: saline sonified
  survivor count: 0 of 6

## CN(C)c1ccc(Nc2c3ccccc3nc3ccccc23)cc1
T/C endpoint: mean survival time, dose: 60.0 mg/kg/injection, schedule: Q03HX040 (oral), vehicle: saline
  T/C: 133 % of control
T/C endpoint: mean survival time, dose: 150.0 mg/kg/injection, schedule: Q03HX016 (oral), vehicle: saline
  T/C: 142 % of control
T/C endpoint: mean survival time, dose: 150.0 mg/kg/injection, schedule: Q03HX024 (oral), vehicle: saline
  T/C: 132 % of control
T/C endpoint: mean survival time, dose: 240.0 mg/kg/injection, schedule: Q03HX040 (oral), vehicle: saline
  survivor count: 8 of 10
T/C endpoint: mean survival time, dose: 300.0 mg/kg/injection, schedule: Q03HX008 (oral), vehicle: saline
  survivor count: 6 of 10
T/C endpoint: mean survival time, dose: 300.0 mg/kg/injection, schedule: Q03HX024 (oral), vehicle: saline
  survivor count: 8 of 10
T/C endpoint: mean survival time, dose: 480.0 mg/kg/injection, schedule: Q03HX040 (oral), vehicle: saline
  survivor count: 0 of 10
T/C endpoint: mean survival time, dose: 600.0 mg/kg/injection, schedule: Q03HX008 (oral), vehicle: saline
  survivor count: 0 of 10
T/C endpoint: mean survival time, dose: 600.0 mg/kg/injection, schedule: Q03HX016 (oral), vehicle: saline
  survivor count: 0 of 10
T/C endpoint: mean survival time, dose: 600.0 mg/kg/injection, schedule: Q03HX024 (oral), vehicle: saline
  survivor count: 0 of 10
T/C endpoint: mean survival time, dose: 1200.0 mg/kg/injection, schedule: Q03HX008 (oral), vehicle: saline
  survivor count: 0 of 10
T/C endpoint: mean survival time, dose: 1200.0 mg/kg/injection, schedule: Q03HX016 (oral), vehicle: saline
  survivor count: 0 of 10
T/C endpoint: mean survival time, dose: 1200.0 mg/kg/injection, schedule: Q03HX024 (oral), vehicle: saline
  survivor count: 0 of 10
T/C endpoint: median survival time, dose: 22.5 mg/kg/injection, schedule: Q01DX009 (ip), vehicle: saline
  T/C: 142 % of control
T/C endpoint: median survival time, dose: 180.0 mg/kg/injection, schedule: Q01DX009 (ip), vehicle: saline
  survivor count: 0 of 6 and 1 of 6

## COc1cc2c[n+](C)c3c4cc5c(cc4ccc3c2cc1OC)OCO5
T/C endpoint: mean survival time, dose: 1.25 mg/kg/injection, schedule: Q01DX009 (ip), vehicle: water
  T/C: 100, 102, 110, 113 % of control
T/C endpoint: mean survival time, dose: 2.5 mg/kg/injection, schedule: Q01DX009 (ip), vehicle: water
  T/C: 110, 111, 112, 122, 125 % of control
T/C endpoint: mean survival time, dose: 5.0 mg/kg/injection, schedule: Q01DX009 (ip), vehicle: water
  T/C: 110, 113 (2×), 118, 121, 125 % of control
T/C endpoint: mean survival time, dose: 10.0 mg/kg/injection, schedule: Q01DX009 (ip), vehicle: water
  T/C: 115 (2×), 121, 125, 126, 127 % of control
T/C endpoint: mean survival time, dose: 20.0 mg/kg/injection, schedule: Q01DX009 (ip), vehicle: water
  T/C: 115, 115 [5 of 6 alive], 119, 130 [5 of 6 alive], 131, 137 % of control
T/C endpoint: mean survival time, dose: 40.0 mg/kg/injection, schedule: Q01DX009 (ip), vehicle: water
  T/C: 141 % of control
[2]
  survivor count: 4 of 6

## CC(C)(C)CC(C)(C)c1ccc(Oc2ccc([N+](=O)[O-])cc2S(=O)(=O)O)cc1
T/C endpoint: mean survival time, dose: 50.0 mg/kg/injection, schedule: Q04DX002 (ip), vehicle: saline with Tween-80
  survivor count: 3 of 3
T/C endpoint: mean survival time, dose: 100.0 mg/kg/injection, schedule: Q04DX002 (ip), vehicle: saline with Tween-80
  survivor count: 3 of 3

## CN1CC(NC(=O)N(CCCl)N=O)CC2c3cccc4c3c(cn4N=O)CC21 (stereo not given)
T/C endpoint: mean survival time, dose: 100.0 mg/kg/injection, schedule: Q01DX001 (ip), vehicle: other
  T/C: 144 % of control

## Cc1nc2c(=O)n(C3OC(CO)C(O)C3O)cnc2o1 (stereo not given)
T/C endpoint: mean survival time, dose: 200.0 mg/kg/injection, schedule: Q01DX005 (ip), vehicle: saline
  T/C: 132 % of control

## CC(=O)OC1CCC2(C)C3CCC4(C)C(OC(=O)c5ccccc5)CCC4C3C3C(=O)OC32C1 (stereo not given)
T/C endpoint: mean survival time, dose: 100.0 mg/kg/injection, schedule: Q01DX001 (ip), vehicle: saline with Tween-80
  survivor count: 6 of 6
[3]
  survivor count: 6 of 6
